This note sets out measurements from patent US11407725B2 (The Board of Trustees of the University of Illinois, priority 2018, dated 2022).

The structures appear in SMILES notation. Entries after “also recorded” stand apart in the source; their conditions may differ.

The test system of the data set is K562 cells. The experiment in a line: Subcellular localization of AlDeSense and BAAA. In kind it is cell-based, human. Conditions: co-staining with organelle trackers.

With `Cc1cc(C=O)ccc1-c1c2cc(F)c(=O)cc-2oc2cc(O)c(F)cc12` [AlDeSense], the subcellular localization entry is given as “stain the cytoplasm; also recorded: localizes in the cytosol”.
With `Cc1cc(C)n2c1C=C1C=CC(CCC(=O)NCC=O)=[N+]1[B-]2(F)F` [BAAA, BODIPY-aminoacetaldehyde, reference compound] the entry was “localizes to the ER and mitochondria”.
